Experimental data published in the supplement of paper PMC10849652.
Some of the results follow.

By UniProt entry, the sequences of proteins in these tests, tags left out. Where a name states a change or a piece, a line headed by the entry shows the natural chain unless it says otherwise.
UniProt Q7L9L4: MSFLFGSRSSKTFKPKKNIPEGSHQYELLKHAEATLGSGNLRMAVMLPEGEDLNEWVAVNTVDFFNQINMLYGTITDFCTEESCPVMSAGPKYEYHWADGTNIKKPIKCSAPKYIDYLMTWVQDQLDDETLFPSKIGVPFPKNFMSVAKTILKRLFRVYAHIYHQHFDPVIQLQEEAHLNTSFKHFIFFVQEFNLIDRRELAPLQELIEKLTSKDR
UniProt Q9NZW5: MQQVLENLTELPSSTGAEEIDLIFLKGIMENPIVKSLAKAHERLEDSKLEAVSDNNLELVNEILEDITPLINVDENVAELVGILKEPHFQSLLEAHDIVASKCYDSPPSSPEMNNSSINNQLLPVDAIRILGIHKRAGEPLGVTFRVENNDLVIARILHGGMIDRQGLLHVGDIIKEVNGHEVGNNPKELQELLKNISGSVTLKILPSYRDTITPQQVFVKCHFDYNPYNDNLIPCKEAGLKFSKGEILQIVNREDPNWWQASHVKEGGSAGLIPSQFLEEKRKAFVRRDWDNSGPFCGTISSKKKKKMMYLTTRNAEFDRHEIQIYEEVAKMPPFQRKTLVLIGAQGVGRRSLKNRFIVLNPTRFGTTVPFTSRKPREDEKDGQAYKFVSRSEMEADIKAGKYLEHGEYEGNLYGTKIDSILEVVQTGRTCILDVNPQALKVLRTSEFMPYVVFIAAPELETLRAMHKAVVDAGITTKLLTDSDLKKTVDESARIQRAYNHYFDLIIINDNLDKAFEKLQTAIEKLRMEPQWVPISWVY
UniProt O75352: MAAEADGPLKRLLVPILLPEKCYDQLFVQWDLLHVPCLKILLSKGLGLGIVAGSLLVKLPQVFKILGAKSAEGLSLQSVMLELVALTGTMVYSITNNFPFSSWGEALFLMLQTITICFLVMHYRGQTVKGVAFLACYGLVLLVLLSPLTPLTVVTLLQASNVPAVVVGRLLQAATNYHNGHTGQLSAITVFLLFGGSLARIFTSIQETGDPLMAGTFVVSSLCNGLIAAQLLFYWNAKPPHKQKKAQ
UniProt O95297: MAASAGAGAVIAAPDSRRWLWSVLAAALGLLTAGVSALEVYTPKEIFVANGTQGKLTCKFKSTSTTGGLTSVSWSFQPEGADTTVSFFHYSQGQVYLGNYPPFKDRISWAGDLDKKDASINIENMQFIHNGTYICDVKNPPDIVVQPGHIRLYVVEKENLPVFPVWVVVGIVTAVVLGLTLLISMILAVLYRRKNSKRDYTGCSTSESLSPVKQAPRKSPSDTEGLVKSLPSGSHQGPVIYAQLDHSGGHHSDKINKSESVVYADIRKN
UniProt Q99547: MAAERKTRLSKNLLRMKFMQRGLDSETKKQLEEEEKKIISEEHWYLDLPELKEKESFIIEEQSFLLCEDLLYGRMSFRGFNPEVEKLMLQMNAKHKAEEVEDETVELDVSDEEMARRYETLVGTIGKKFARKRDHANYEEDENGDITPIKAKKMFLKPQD
UniProt P34949: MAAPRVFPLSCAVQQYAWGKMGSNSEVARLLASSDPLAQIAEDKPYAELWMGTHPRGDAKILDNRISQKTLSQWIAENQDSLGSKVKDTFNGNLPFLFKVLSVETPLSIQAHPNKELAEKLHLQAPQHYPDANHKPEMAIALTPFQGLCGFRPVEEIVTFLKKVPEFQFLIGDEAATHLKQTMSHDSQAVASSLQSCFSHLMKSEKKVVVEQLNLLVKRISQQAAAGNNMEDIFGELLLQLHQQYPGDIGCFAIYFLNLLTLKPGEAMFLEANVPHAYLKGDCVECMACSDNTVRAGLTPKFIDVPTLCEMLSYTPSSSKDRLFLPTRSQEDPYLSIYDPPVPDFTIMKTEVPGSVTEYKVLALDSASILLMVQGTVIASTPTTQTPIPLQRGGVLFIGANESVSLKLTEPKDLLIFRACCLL
UniProt Q13015: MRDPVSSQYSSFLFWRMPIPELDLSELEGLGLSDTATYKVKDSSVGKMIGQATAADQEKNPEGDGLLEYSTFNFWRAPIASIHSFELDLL

Legend:
Experiment in all cases: log2 fold change, soluble protein after heating vs DMSO (PISA); higher = thermal stabilisation; K562 cells, 10 uM, 30 min; active = over 0.2 and 3.5 SD of the protein, either way, in both replicates (recomputed)
[1] = compound: CC[C@@H]1C(=O)N(C)c2cnc(Nc3ccc(C(=O)NC4CCN(C)CC4)cc3OC)nc2N1C1CCCC1
In short: (§1)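 K562 cells at 2×10^6 cells/mL were given 10 μM compound for 30 min. Aliquots then went through 3 min of heating across 48°C-58°C, were pooled, and were extracted in PBS with 0.5% NP-40 at 4°C, and the supernatant after 21,000xg for 90 min was quantified by TMTpro 16plex LC-MS/MS with channel sums equalised. Thermal stability relative to control samples, from duplicates, is given as log2 fold change.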

volasertib = compound: CC[C@@H]1C(=O)N(C)c2cnc(Nc3ccc(C(=O)N[C@H]4CC[C@H](N5CCN(CC6CC6)CC5)CC4)cc3OC)nc2N1C(C)C [volasertib]
In short: as §1

[2] = compound: CC[C@H](C)N1C=C(C2=C(C=C(C=C21)C3=CN=C(C=C3)N4CCNCC4)C(=O)NCC5=C(C=C(NC5=O)C)C)C
In short: as §1

epoxomicin = compound: CC[C@H](C)[C@@H](C(=O)N[C@@H]([C@@H](C)O)C(=O)N[C@@H](CC(C)C)C(=O)[C@]1(CO1)C)NC(=O)[C@H]([C@@H](C)CC)N(C)C(=O)C [epoxomicin]
In short: as §1

[3] = compound: CCn1c(C(=O)N(C2CC2)C2CC2)cc2c3c(ncn3C)c(Nc3cc(C)n(C)n3)nc21
In short: as §1

[4] = compound: CCn1cc(-c2ccnc3[nH]c(-c4cccc(CN(C)C)c4)cc23)c(-c2ccc(NC(=O)N(C)C)cc2)n1
In short: as §1

[5] = compound: CN(C)CC(=O)Nc1ccc2[nH]c(=O)c3ccccc3c2c1
In short: as §1

rosiglitazone = compound: CN(CCOC1=CC=C(C=C1)C[C@H]2C(=O)NC(=O)S2)C3=CC=CC=N3 (racemic) [rosiglitazone]
In short: as §1

[6] = compound: CN1C2=C(C3=C1C(=O)N(N=C3)CC4=CC(=CC=C4)N)SC(=C2)S(=O)C
In short: as §1

[7] = compound: CN1CCC(CNc2ccc3ncc(-c4cccc(OC(F)(F)F)c4)n3n2)CC1
In short: as §1

saracatinib = compound: CN1CCN(CCOc2cc(OC3CCOCC3)c3c(Nc4c(Cl)ccc5c4OCO5)ncnc3c2)CC1 [saracatinib]
In short: as §1

sotrastaurin = compound: CN1CCN(c2nc(C3=C(c4c[nH]c5ccccc45)C(=O)NC3=O)c3ccccc3n2)CC1 [sotrastaurin]
In short: as §1

alvocidib = compound: CN1CC[C@H](c2c(O)cc(O)c3c(=O)cc(-c4ccccc4Cl)oc23)[C@H](O)C1 [alvocidib]
In short: as §1

Tubastatin A = compound: CN1CCc2c(c3ccccc3n2Cc2ccc(C(=O)NO)cc2)C1 [Tubastatin A]
In short: as §1

[8] = compound: CNC(=O)C1=CC=CC=C1NC2=NC(=NC=C2Cl)NC3=C(C=C(C=C3)N4CCOCC4)OC
In short: as §1

defactinib = compound: CNC(=O)c1ccc(Nc2ncc(C(F)(F)F)c(NCc3nccnc3N(C)S(C)(=O)=O)n2)cc1 [defactinib]
In short: as §1

rucaparib = compound: CNCc1ccc(-c2[nH]c3cc(F)cc4c3c2CCNC4=O)cc1 [rucaparib]
In short: as §1

[9] = compound: CNc1nc(-c2ccc3c(N)n[nH]c3c2)cc(N2C[C@@H](C(=O)NC3CCCCC3)CC[C@H]2C)n1
In short: as §1

encorafenib = compound: COC(=O)N[C@@H](C)CNc1nccc(-c2cn(C(C)C)nc2-c2cc(Cl)cc(NS(C)(=O)=O)c2F)n1 [encorafenib]
In short: as §1

[10] = compound: COC(=O)[C@H](CCSC)NC(=O)C1=C(C=C(C=C1)NC[C@H](CS)N)C2=CC=CC=C2
In short: as §1

Measured: log2 fold change

MRPL38 (UniProt Q96DV4)
inactive: [1] 0.138 | volasertib 0.234 | [2] 0.114 | epoxomicin -0.108 | [3] -0.046 | [4] -0.038 | [5] -0.018 | rosiglitazone -0.003 | [6] 0.091 | [7] 0.091 | saracatinib -0.183 | sotrastaurin -0.035 | alvocidib 0.139 | Tubastatin A 0.069 | [8] -0.03 | defactinib 0.184 | rucaparib 0.145 | [9] 0.129 | encorafenib 0.118 | [10] -0.002

MRPL2 (UniProt Q5T653)
inactive: [1] 0.02 | volasertib 0.138 | [2] 0.019 | epoxomicin 0.087 | [3] -0.115 | [4] -0.034 | [5] -0.063 | rosiglitazone -0.031 | [6] 0.059 | [7] 0.079 | saracatinib -0.198 | sotrastaurin -0.072 | alvocidib 0.114 | Tubastatin A 0.113 | [8] 0.033 | defactinib 0.189 | rucaparib 0.146 | [9] 0.143 | encorafenib 0.105 | [10] 0.013

MOB1B isoform 2 (UniProt Q7L9L4)
inactive: [1] -0.03 | volasertib -0.044 | [2] 0.002 | epoxomicin 0.033 | [3] -0.016 | [4] 0.006 | [5] -0.01 | rosiglitazone 0.037 | [6] -0.098 | [7] -0.091 | saracatinib 0.031 | sotrastaurin 0.018 | alvocidib -0.021 | Tubastatin A 0.01 | [8] -0.036 | defactinib 0.005 | rucaparib -0.104 | [9] -0.034 | encorafenib 0.004 | [10] 0.028

MPP6 (UniProt Q9NZW5)
inactive: [1] 0.015 | volasertib -0.074 | [2] 0.049 | epoxomicin 0.013 | [3] -0.018 | [4] -0.022 | [5] 0.023 | rosiglitazone 0.022 | [6] -0.043 | [7] -0.035 | saracatinib -0.004 | sotrastaurin 0.001 | alvocidib -0.066 | Tubastatin A 0.02 | [8] -0.008 | defactinib -0.055 | rucaparib 0.012 | [9] 0.022 | encorafenib 0.034 | [10] 0.013

MRPL53 (UniProt Q96EL3)
inactive: [1] 0.108 | volasertib 0.243 | [2] 0 | epoxomicin 0.096 | [3] 0 | [4] 0.113 | [5] -0.017 | rosiglitazone -0.071 | [6] 0.028 | [7] 0.203 | saracatinib -0.247 | sotrastaurin -0.012 | alvocidib 0.218 | Tubastatin A 0.066 | [8] 0.062 | defactinib 0.182 | rucaparib 0.11 | [9] 0.005 | encorafenib 0.081 | [10] -0.003

MPDU1 (UniProt O75352)
inactive: [1] 0.055 | volasertib -0.037 | [2] 0.023 | epoxomicin -0.05 | [3] -0.042 | [4] -0.042 | [5] 0.134 | rosiglitazone 0.021 | [6] -0.112 | [7] 0.088 | saracatinib 0.12 | sotrastaurin -0.02 | alvocidib 0.025 | Tubastatin A -0.055 | [8] -0.082 | defactinib -0.017 | rucaparib -0.113 | [9] -0.066 | encorafenib 0.054 | [10] 0.055

MRPL13 (UniProt Q9BYD1)
inactive: [1] -0.009 | volasertib 0.18 | [2] 0.062 | epoxomicin 0.034 | [3] -0.047 | [4] -0.027 | [5] -0.001 | rosiglitazone 0.03 | [6] 0.013 | [7] 0.094 | saracatinib -0.078 | sotrastaurin -0.022 | alvocidib 0.006 | Tubastatin A 0.165 | [8] -0.041 | defactinib 0.141 | rucaparib 0.054 | [9] 0.103 | encorafenib 0.092 | [10] -0.164

MPZL1 (UniProt O95297)
inactive: [1] 0.123 | volasertib 0.13 | [2] -0.025 | epoxomicin -0.019 | [3] 0.02 | [4] -0.027 | [5] -0.049 | rosiglitazone -0.025 | [6] -0.051 | [7] 0.004 | saracatinib -0.013 | sotrastaurin 0.095 | alvocidib 0.037 | Tubastatin A -0.043 | [8] -0.051 | defactinib 0.003 | rucaparib 0.033 | [9] 0.027 | encorafenib -0.026 | [10] 0.027

MPHOSPH6 (UniProt Q99547)
inactive: [1] 0.109 | volasertib -0.129 | [2] -0.04 | epoxomicin -0.108 | [3] 0.011 | [4] 0.042 | [5] -0.063 | rosiglitazone -0.05 | [6] 0.104 | [7] 0.054 | saracatinib -0.056 | sotrastaurin 0.063 | alvocidib 0.062 | Tubastatin A 0.058 | [8] -0.016 | defactinib 0.078 | rucaparib 0.121 | [9] 0.042 | encorafenib 0.156 | [10] 0.079

Quoted from the results shown (two entries):
MPZL1 (UniProt O95297)
inactive: [1] 0.123 | volasertib 0.13 | [2] -0.025 | epoxomicin -0.019 | [3] 0.02 | [4] -0.027 | [5] -0.049 | rosiglitazone -0.025 | [6] -0.051 | [7] 0.004 | saracatinib -0.013 | sotrastaurin 0.095 | alvocidib 0.037 | Tubastatin A -0.043 | [8] -0.051 | defactinib 0.003 | rucaparib 0.033 | [9] 0.027 | encorafenib -0.026 | [10] 0.027

MPHOSPH6 (UniProt Q99547)
inactive: [1] 0.109 | volasertib -0.129 | [2] -0.04 | epoxomicin -0.108 | [3] 0.011 | [4] 0.042 | [5] -0.063 | rosiglitazone -0.05 | [6] 0.104 | [7] 0.054 | saracatinib -0.056 | sotrastaurin 0.063 | alvocidib 0.062 | Tubastatin A 0.058 | [8] -0.016 | defactinib 0.078 | rucaparib 0.121 | [9] 0.042 | encorafenib 0.156 | [10] 0.079

Following part:

MRPL40 (UniProt Q9NQ50)
inactive: [1] 0.125 | volasertib 0.282 | [2] 0.009 | epoxomicin 0.002 | [3] 0.023 | [4] -0.035 | [5] -0.114 | rosiglitazone -0.07 | [6] 0.051 | [7] 0.076 | saracatinib -0.17 | sotrastaurin 0.012 | alvocidib 0.005 | Tubastatin A 0.023 | [8] -0.009 | defactinib 0.129 | rucaparib 0.071 | [9] 0.078 | encorafenib 0.005 | [10] 0

MRPL37 (UniProt Q9BZE1)
inactive: [1] 0.023 | volasertib 0.163 | [2] 0.07 | epoxomicin -0.006 | [3] 0.011 | [4] -0.082 | [5] -0.032 | rosiglitazone -0.029 | [6] 0.063 | [7] -0.04 | saracatinib -0.118 | sotrastaurin -0.127 | alvocidib 0.05 | Tubastatin A 0.046 | [8] -0.015 | defactinib 0.074 | rucaparib 0.111 | [9] 0.186 | encorafenib 0.076 | [10] -0.039

MPI (UniProt P34949)
inactive: [1] -0.033 | volasertib -0.164 | [2] 0.035 | epoxomicin 0 | [3] -0.051 | [4] -0.013 | [5] -0.001 | rosiglitazone 0.04 | [6] -0.077 | [7] -0.134 | saracatinib 0.028 | sotrastaurin 0.036 | alvocidib -0.028 | Tubastatin A -0.079 | [8] -0.158 | defactinib -0.049 | rucaparib 0.016 | [9] 0.04 | encorafenib 0.026 | [10] 0.155

MLLT11 (UniProt Q13015)
inactive: [1] 0.119 | volasertib -0.17 | [2] 0.068 | epoxomicin 0.538 | [3] 0.013 | [4] -0.02 | [5] 0.567 | rosiglitazone 0.143 | [6] 0.055 | [7] -0.104 | saracatinib -0.138 | sotrastaurin 0.189 | alvocidib -0.17 | Tubastatin A 0.029 | [8] -0.031 | defactinib -0.182 | rucaparib -0.016 | [9] -0.047 | encorafenib -0.086 | [10] 0.293

MRPL4 (UniProt Q9BYD3)
inactive: [1] 0.057 | volasertib 0.164 | [2] -0.03 | epoxomicin -0.005 | [3] -0.076 | [4] 0.023 | [5] -0.035 | rosiglitazone -0.059 | [6] 0.171 | [7] 0.08 | saracatinib -0.08 | sotrastaurin -0.158 | alvocidib 0.12 | Tubastatin A 0.116 | [8] -0.027 | defactinib 0.182 | rucaparib 0.119 | [9] 0.148 | encorafenib 0.08 | [10] -0.016

MRPL48 (UniProt Q96GC5)
inactive: [1] 0.068 | volasertib 0.255 | [2] 0.205 | epoxomicin -0.106 | [3] -0.064 | [4] -0.068 | [5] 0.002 | rosiglitazone -0.064 | [6] -0.01 | [7] 0.122 | saracatinib -0.11 | sotrastaurin -0.046 | alvocidib 0.109 | Tubastatin A 0.082 | [8] -0.071 | defactinib 0.105 | rucaparib 0.117 | [9] 0.223 | encorafenib 0.081 | [10] 0.04

MRPL44 (UniProt Q9H9J2)
inactive: [1] 0.085 | volasertib 0.221 | [2] 0.087 | epoxomicin -0.046 | [3] -0.068 | [4] 0.007 | [5] -0.033 | rosiglitazone -0.044 | [6] 0.059 | [7] 0.068 | saracatinib -0.183 | sotrastaurin -0.057 | alvocidib 0.08 | Tubastatin A 0.091 | [8] -0.03 | defactinib 0.123 | rucaparib 0.088 | [9] 0.083 | encorafenib 0.176 | [10] -0.05
